Test system: export of VSV-G protein from the ER
Format: cell-based

In the case of CN[C@@H]1C[C@H]2O[C@@](C)([C@@H]1OC)n1c3ccccc3c3c4c(c5c6ccccc6n2c5c31)C(=O)NC4 [staurosporine], the “antagonism of the inhibitory effect of mastoparan” value is reported as “does not antagonize”.
